Experimental data from the supplement of paper PMC10849652.
This is one part of the list.

By UniProt entry, the sequences of proteins in these tests, tags left out. Where a name states a change or a piece, a line headed by the entry shows the natural chain unless it says otherwise.
UniProt Q86U44, whole entry, looked up: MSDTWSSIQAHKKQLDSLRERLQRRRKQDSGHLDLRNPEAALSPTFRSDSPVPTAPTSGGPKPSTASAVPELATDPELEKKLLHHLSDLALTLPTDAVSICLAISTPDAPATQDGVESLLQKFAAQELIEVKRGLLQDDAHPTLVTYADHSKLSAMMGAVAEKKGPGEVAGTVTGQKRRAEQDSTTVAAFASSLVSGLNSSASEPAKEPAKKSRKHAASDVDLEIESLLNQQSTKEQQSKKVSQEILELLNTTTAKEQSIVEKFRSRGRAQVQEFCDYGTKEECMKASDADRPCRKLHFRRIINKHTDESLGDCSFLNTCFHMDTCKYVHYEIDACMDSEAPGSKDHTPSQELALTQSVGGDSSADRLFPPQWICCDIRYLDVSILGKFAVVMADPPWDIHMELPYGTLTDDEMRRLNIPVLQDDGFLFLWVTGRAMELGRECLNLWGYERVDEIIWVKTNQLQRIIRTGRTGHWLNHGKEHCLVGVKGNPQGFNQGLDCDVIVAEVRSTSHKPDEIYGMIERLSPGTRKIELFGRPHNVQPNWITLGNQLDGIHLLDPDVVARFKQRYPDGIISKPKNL
UniProt Q9NWR8: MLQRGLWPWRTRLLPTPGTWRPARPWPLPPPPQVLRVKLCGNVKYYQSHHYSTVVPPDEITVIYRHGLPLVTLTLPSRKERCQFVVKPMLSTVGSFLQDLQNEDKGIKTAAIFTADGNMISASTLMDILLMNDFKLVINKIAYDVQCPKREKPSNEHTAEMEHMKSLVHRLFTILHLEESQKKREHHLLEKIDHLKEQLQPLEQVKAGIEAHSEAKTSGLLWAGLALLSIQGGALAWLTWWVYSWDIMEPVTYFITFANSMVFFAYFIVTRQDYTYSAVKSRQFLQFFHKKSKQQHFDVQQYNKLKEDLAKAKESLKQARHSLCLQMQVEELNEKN
UniProt P43243: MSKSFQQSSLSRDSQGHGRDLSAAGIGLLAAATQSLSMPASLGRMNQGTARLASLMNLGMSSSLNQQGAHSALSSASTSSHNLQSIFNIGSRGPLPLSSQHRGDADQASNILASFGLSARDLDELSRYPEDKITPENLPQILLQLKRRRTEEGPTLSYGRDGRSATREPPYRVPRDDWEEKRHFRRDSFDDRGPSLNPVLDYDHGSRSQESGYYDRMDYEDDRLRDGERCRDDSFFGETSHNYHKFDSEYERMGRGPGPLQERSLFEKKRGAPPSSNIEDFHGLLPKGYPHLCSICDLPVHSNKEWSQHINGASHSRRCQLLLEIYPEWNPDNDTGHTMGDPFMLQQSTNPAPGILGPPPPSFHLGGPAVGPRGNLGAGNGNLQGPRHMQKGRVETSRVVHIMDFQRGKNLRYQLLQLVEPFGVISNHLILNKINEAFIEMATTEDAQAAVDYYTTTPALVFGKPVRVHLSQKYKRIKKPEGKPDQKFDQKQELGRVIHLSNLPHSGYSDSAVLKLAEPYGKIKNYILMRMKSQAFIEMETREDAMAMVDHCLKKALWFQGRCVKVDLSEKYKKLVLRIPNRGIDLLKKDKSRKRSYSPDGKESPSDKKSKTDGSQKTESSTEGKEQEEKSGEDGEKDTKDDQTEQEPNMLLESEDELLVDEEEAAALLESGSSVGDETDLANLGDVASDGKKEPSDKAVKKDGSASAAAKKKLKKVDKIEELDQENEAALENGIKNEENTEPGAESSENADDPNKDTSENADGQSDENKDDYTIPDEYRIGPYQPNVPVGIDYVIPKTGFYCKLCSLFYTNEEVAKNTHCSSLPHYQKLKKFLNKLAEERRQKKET
UniProt Q6ZWT7: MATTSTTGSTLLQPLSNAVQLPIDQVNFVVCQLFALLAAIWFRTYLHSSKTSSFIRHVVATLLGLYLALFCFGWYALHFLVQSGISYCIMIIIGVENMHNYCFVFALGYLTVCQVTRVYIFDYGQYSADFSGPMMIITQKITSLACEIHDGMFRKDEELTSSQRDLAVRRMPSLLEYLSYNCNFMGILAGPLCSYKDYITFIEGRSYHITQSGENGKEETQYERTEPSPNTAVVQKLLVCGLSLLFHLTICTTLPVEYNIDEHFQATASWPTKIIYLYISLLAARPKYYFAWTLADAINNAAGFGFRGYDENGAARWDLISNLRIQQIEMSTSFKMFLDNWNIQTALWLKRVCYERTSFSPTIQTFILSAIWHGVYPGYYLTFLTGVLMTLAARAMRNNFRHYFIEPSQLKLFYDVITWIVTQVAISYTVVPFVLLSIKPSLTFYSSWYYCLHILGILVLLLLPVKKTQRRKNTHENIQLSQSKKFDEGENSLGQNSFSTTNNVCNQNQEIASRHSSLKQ
UniProt P25205: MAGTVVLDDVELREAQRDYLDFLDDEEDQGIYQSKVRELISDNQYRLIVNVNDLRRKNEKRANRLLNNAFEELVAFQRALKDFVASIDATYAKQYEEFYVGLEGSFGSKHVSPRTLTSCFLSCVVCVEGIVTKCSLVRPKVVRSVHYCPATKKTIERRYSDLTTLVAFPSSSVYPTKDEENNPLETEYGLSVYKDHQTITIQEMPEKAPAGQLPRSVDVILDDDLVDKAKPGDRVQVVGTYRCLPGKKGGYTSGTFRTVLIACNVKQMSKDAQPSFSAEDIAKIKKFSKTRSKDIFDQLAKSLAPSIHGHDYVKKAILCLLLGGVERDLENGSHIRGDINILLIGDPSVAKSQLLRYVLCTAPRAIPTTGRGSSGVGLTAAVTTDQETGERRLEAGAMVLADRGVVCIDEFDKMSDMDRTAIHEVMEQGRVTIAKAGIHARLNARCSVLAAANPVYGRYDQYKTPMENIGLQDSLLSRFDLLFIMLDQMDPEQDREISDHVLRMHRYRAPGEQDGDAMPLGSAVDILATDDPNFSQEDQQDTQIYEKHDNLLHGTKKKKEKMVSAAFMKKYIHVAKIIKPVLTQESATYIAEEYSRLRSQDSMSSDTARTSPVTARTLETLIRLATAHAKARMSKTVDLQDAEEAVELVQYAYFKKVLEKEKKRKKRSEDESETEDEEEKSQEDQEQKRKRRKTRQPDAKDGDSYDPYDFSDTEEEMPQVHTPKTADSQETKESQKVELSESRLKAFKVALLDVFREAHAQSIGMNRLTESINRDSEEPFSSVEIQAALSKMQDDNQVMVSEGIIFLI
UniProt Q9NRN9: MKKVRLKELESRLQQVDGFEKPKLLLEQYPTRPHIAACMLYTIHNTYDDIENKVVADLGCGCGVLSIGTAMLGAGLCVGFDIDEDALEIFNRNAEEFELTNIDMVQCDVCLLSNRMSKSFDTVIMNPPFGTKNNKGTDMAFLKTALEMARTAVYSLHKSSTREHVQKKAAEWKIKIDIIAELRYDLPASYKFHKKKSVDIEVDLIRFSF
UniProt Q86V88: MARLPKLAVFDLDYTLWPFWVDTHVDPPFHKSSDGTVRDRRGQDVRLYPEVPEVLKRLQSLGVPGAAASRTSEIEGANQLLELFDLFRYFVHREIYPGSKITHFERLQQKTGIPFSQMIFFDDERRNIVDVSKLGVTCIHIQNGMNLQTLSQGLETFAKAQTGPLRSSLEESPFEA
UniProt Q8WXB1: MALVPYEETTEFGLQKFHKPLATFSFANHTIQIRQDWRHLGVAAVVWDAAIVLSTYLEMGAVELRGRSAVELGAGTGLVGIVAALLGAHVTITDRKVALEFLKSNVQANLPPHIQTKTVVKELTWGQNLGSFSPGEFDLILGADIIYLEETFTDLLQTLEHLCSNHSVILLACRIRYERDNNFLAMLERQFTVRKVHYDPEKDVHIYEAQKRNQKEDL
UniProt Q96RN5: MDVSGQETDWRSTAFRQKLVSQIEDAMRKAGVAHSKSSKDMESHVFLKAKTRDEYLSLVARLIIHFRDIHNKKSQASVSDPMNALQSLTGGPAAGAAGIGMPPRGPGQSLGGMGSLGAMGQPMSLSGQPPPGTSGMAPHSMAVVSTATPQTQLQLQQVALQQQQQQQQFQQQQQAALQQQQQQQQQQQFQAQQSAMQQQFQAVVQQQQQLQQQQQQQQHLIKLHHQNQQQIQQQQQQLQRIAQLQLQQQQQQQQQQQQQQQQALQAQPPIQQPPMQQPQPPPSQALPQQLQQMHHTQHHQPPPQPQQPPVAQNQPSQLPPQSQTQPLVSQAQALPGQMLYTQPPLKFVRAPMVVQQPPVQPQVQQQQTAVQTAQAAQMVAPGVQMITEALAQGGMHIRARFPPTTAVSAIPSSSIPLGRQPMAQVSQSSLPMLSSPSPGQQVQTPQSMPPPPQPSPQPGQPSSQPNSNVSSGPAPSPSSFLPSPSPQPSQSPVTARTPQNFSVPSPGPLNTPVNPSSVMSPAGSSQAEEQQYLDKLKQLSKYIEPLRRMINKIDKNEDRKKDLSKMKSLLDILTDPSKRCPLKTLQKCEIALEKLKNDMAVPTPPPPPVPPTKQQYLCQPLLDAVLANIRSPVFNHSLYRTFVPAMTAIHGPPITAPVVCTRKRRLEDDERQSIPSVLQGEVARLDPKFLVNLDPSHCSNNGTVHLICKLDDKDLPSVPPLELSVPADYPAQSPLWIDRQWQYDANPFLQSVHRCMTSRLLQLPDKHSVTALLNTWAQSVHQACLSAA
UniProt Q8NHS3: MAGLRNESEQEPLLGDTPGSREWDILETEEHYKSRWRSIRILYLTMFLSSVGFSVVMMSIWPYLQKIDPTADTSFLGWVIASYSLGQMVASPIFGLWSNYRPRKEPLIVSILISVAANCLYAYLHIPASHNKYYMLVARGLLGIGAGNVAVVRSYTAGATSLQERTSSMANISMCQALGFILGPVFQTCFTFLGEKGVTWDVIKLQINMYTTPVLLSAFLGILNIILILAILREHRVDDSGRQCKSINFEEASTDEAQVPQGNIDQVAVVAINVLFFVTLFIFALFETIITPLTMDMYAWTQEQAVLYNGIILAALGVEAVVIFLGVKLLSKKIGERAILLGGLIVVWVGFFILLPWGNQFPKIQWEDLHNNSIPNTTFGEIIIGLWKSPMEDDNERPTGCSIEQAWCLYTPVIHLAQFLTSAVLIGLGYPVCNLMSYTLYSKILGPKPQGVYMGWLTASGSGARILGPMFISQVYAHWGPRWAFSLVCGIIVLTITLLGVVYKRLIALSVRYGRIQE
UniProt P33993, whole entry, looked up: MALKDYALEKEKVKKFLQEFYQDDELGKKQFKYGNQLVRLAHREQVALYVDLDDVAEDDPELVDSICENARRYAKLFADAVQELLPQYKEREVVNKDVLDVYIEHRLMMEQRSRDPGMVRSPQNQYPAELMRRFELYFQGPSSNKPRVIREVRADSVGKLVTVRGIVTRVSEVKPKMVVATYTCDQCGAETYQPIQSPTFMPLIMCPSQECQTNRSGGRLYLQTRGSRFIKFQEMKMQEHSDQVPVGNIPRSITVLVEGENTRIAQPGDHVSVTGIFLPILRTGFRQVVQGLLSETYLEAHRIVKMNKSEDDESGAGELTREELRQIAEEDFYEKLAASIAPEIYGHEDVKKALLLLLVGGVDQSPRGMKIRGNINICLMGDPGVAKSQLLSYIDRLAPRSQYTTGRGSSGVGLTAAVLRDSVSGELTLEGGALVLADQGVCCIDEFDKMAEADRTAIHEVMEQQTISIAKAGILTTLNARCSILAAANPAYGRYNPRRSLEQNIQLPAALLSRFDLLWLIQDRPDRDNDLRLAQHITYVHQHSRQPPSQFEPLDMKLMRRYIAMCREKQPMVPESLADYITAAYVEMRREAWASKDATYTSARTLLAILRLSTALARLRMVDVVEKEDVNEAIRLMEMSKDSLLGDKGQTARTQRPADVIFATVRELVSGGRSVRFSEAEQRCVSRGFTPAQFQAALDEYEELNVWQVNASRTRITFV
UniProt Q9Y6X3: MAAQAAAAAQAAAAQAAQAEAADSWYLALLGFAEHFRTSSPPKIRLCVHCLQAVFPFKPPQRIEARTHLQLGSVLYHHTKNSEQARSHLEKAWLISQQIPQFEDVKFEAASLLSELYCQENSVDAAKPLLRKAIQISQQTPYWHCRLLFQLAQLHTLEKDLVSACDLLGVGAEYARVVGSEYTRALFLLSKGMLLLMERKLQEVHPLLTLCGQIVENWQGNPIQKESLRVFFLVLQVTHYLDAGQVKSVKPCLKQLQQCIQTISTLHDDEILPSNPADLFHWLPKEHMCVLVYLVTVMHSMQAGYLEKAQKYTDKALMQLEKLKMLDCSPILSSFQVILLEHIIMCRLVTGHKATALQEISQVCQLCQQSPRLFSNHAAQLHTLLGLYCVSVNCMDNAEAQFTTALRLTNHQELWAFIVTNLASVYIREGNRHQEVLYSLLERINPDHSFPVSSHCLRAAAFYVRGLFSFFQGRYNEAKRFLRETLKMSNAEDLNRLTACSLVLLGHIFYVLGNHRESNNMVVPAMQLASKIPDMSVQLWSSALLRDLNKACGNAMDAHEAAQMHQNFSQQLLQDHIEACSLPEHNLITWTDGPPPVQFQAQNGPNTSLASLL
UniProt O75586: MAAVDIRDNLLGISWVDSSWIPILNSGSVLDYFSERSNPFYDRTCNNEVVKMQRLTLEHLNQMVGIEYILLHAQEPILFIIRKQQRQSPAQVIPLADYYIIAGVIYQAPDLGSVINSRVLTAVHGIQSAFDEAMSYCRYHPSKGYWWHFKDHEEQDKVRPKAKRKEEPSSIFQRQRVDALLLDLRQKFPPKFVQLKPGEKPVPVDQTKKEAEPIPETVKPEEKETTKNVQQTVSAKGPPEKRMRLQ

Tests used:
Assay in all cases: log2 fold change, soluble protein after heating vs DMSO (PISA); higher = thermal stabilisation; K562 lysate, 10 uM; active = over 0.2 and 3.5 SD of the protein, either way, in both replicates (recomputed)
ibrutinib = compound: C=CC(=O)N1CCC[C@@H](n2nc(-c3ccc(Oc4ccccc4)cc3)c3c(N)ncnc32)C1 [ibrutinib]
Method in brief: (§1)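 Values give the log-two fold change in thermal stability against solvent controls, from duplicates. Crude K562 extract at 1 mg/mL protein, made by dounce homogenisation in PBS pH 7.4 with 1 mM MgCl2, was treated with 10 μM compound for 30 min. After 3 min heating across 48°C-58°C, aliquots were pooled, adjusted to 0.5% NP-40 at 4°C and centrifuged at 21,000xg for 90 min. The supernatant was measured by TMTpro 16plex LC-MS/MS with channel sums equalised.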

[1] = compound: CC(=O)c1cnc2ccc(-c3cc(Cl)c(O)c(Cl)c3)nc2c1N[C@H]1CC[C@H](CN(C)C)CC1
Method in brief: as §1

ralimetinib = compound: CC(C)(C)Cn1c(N)nc2ccc(-c3[nH]c(C(C)(C)C)nc3-c3ccc(F)cc3)nc21 [ralimetinib]
Method in brief: as §1

[2] = compound: CC(C)(O)CC(=O)NCCn1ccc2ncnc(Nc3ccc(Oc4cccc(C(F)(F)F)c4)c(Cl)c3)c21
Method in brief: as §1

[3] = compound: CC(C)C1=C2N=C(C=C(N2N=C1)NCC3=CC=CC=C3)NCCCCCCN
Method in brief: as §1

[4] = compound: CC1=C(C(CC(=O)N1)C2=CC=C(C=C2)C(F)(F)F)C(=O)NC3=C(C=C4C(=C3)C=NN4)F
Method in brief: as §1

[5] = compound: CC1=C(C2=C(C=C1)C(=O)C3=CC=CC=C3N2CCCN)C
Method in brief: as §1

[6] = compound: CC1=C(C=C(C=C1)NC(=O)C2=CC(=CC=C2)C(C)(C)C#N)NC3=CC4=C(C=C3)N=CN(C4=O)C
Method in brief: as §1

[7] = compound: CC1=C(C=C(C=C1)NC(=O)C2=CC(=CC=C2)N(C)C)NC(=O)C3=CC=C(C=C3)O
Method in brief: as §1

[8] = compound: CC1=CC=C(C=C1)SC2=C3C=C(SC3=CN=C2)C(=O)N
Method in brief: as §1

Target | log2 fold change (ibrutinib) | log2 fold change [1] | log2 fold change (ralimetinib) | log2 fold change [2] | log2 fold change [3] | log2 fold change [4] | log2 fold change [5] | log2 fold change [6] | log2 fold change [7] | log2 fold change [8]
METTL3 (UniProt Q86U44) | inactive: 0.027 | inactive: -0.015 | inactive: 0.022 | inactive: -0.017 | inactive: -0.01 | inactive: -0.002 | inactive: -0.021 | inactive: 0.001 | inactive: -0.032 | inactive: -0.012
MBNL1 (UniProt C9JP00) | inactive: 0.016 | inactive: -0.034 | inactive: -0.013 | inactive: 0.001 | inactive: 0.028 | inactive: 0.063 | inactive: 0.033 | inactive: -0.069 | inactive: -0.055 | inactive: 0.004
MCUB (UniProt Q9NWR8) | inactive: 0.127 | inactive: 0.013 | inactive: 0.054 | inactive: 0.045 | inactive: -0.063 | inactive: 0.039 | inactive: -0.219 | active: 0.443 | inactive: 0.04 | inactive: 0.204
MED20 (UniProt Q9H944) | inactive: 0.086 | inactive: -0.024 | inactive: -0.028 | inactive: -0.116 | inactive: -0.032 | inactive: -0.037 | inactive: 0.012 | inactive: 0.03 | inactive: 0.044 | inactive: -0.019
MCAM (UniProt P43121) | inactive: 0.013 | inactive: -0.013 | inactive: 0.021 | inactive: -0.046 | inactive: -0.016 | inactive: -0.001 | inactive: -0.01 | inactive: 0.024 | inactive: 0.004 | inactive: -0.039
MEPCE (UniProt Q7L2J0) | inactive: 0.001 | inactive: -0.013 | inactive: 0 | inactive: 0.03 | inactive: 0.02 | inactive: 0.013 | inactive: 0.015 | inactive: -0.024 | inactive: 0.021 | inactive: 0.012
MATR3 (UniProt P43243) | inactive: -0.001 | inactive: -0.028 | inactive: -0.014 | inactive: -0.098 | inactive: 0.048 | inactive: 0.026 | inactive: -0.043 | inactive: 0.126 | inactive: 0.024 | inactive: -0.007
MBOAT2 (UniProt Q6ZWT7) | inactive: -0.092 | inactive: -0.039 | inactive: 0.137 | inactive: 0.047 | inactive: -0.047 | inactive: 0.034 | inactive: 0.031 | inactive: 0.008 | inactive: -0.117 | inactive: 0.096
MEAF6 isoform 3 (UniProt Q9HAF1) | inactive: 0.02 | inactive: -0.009 | inactive: -0.128 | inactive: 0.002 | inactive: 0.032 | inactive: 0.081 | inactive: -0.001 | inactive: 0.136 | inactive: 0.045 | inactive: -0.011
MFN2 (UniProt O95140) | inactive: -0.035 | inactive: -0.012 | inactive: 0.015 | inactive: 0.034 | inactive: -0.013 | inactive: -0.007 | inactive: 0.008 | inactive: 0.02 | inactive: 0.039 | inactive: -0.013
MCCC2 (UniProt Q9HCC0) | inactive: -0.001 | inactive: -0.008 | inactive: 0.001 | inactive: 0.007 | inactive: -0.003 | inactive: 0.016 | inactive: 0 | inactive: 0.018 | inactive: -0.003 | inactive: -0.025
MED30 (UniProt Q96HR3) | inactive: 0.095 | inactive: 0.003 | inactive: 0.034 | inactive: -0.073 | inactive: -0.002 | inactive: 0 | inactive: -0.021 | inactive: -0.015 | inactive: 0.003 | inactive: -0.006
MCM3 isoform 2 (UniProt P25205) | inactive: 0.012 | inactive: -0.026 | inactive: -0.005 | inactive: 0.009 | inactive: -0.007 | inactive: 0.007 | inactive: 0 | inactive: -0.006 | inactive: -0.005 | inactive: 0.006
MEF2A (UniProt Q02078) | inactive: 0.055 | inactive: 0.08 | inactive: -0.033 | inactive: -0.048 | inactive: 0.076 | inactive: -0.07 | inactive: 0.028 | inactive: 0 | inactive: 0.052 | inactive: 0.012
MCTS1 isoform 3 (UniProt Q9ULC4) | inactive: 0.023 | inactive: -0.009 | inactive: -0.038 | inactive: 0.018 | inactive: 0.043 | inactive: -0.022 | inactive: 0.015 | inactive: 0 | inactive: -0.033 | inactive: 0.005
METTL5 (UniProt Q9NRN9) | inactive: -0.022 | inactive: -0.006 | inactive: -0.019 | inactive: -0.007 | inactive: -0.056 | inactive: 0.024 | inactive: 0.03 | inactive: -0.013 | inactive: 0.007 | inactive: -0.01
MDP1 (UniProt Q86V88) | inactive: 0.073 | inactive: -0.018 | inactive: -0.004 | inactive: -0.05 | inactive: -0.013 | inactive: 0.008 | inactive: -0.061 | inactive: 0.048 | inactive: -0.004 | inactive: 0.01
METTL21A (UniProt Q8WXB1) | inactive: 0.006 | inactive: -0.106 | inactive: 0.021 | inactive: -0.032 | inactive: 0 | inactive: -0.019 | inactive: -0.138 | inactive: 0 | inactive: 0.009 | inactive: -0.032
MBD3 (UniProt O95983) | inactive: 0.023 | inactive: -0.006 | inactive: -0.035 | inactive: 0.018 | inactive: -0.002 | inactive: 0.028 | inactive: 0.016 | inactive: -0.035 | inactive: 0.013 | inactive: -0.007
MED15 (UniProt Q96RN5) | inactive: 0.024 | inactive: -0.024 | inactive: 0.014 | inactive: 0.023 | inactive: 0.014 | inactive: 0.024 | inactive: -0.033 | inactive: -0.003 | inactive: 0.006 | inactive: 0.009
MFSD8 (UniProt Q8NHS3) | inactive: 0.032 | inactive: -0.015 | inactive: 0.032 | inactive: 0.009 | inactive: 0.087 | inactive: -0.017 |  | inactive: -0.047 | inactive: -0.033 | inactive: 0.033
MCM7 (UniProt P33993) | inactive: -0.017 | inactive: -0.001 | inactive: 0.016 | inactive: -0.002 | inactive: 0.012 | inactive: -0.024 | inactive: -0.003 | inactive: -0.009 | inactive: 0.042 | inactive: 0.02
MFHAS1 (UniProt Q9Y4C4) | inactive: 0.526 | inactive: 0.26 | inactive: 0.009 | inactive: -0.233 | inactive: 0.019 |  | inactive: -0.118 | inactive: 0.115 | inactive: -0.026 | inactive: 0.258
MAU2 (UniProt Q9Y6X3) | inactive: 0.082 | inactive: -0.06 | inactive: 0.039 | inactive: -0.047 | inactive: -0.051 |  |  | inactive: 0.069 | inactive: 0.006 | inactive: 0.162
MECP2 isoform 2 (UniProt P51608) | inactive: -0.025 | inactive: 0.003 | inactive: 0.066 | inactive: -0.016 | inactive: 0.016 | inactive: -0.053 | inactive: 0.038 | inactive: 0.036 | inactive: -0.045 | inactive: 0.022
MESD (UniProt Q14696) | inactive: 0.014 | inactive: -0.001 | inactive: 0.035 | inactive: 0.03 | inactive: -0.023 | inactive: -0.01 | inactive: 0.024 | inactive: -0.063 | inactive: 0.013 | inactive: -0.005
MED6 (UniProt O75586) | inactive: 0.043 | inactive: 0.064 | inactive: -0.167 | inactive: 0.02 |  |  | inactive: -0.02 | inactive: 0.081 | inactive: -0.024 | inactive: -0.153
METTL6 (UniProt Q8TCB7) | inactive: -0.078 | inactive: 0.066 | inactive: 0.211 | inactive: -0.135 |  |  | inactive: -0.034 | inactive: 0.015 | inactive: 0.118 | inactive: 0.009
MED22 isoform 2 (UniProt Q15528) | inactive: 0.144 | inactive: -0.034 | inactive: -0.075 | inactive: -0.017 | inactive: 0.043 | inactive: -0.058 | inactive: 0.067 | inactive: 0.026 | inactive: 0.083 | inactive: -0.001

Single entries from the results shown:
log2 fold change (ralimetinib), MECP2 isoform 2 (UniProt P51608) reads inactive: 0.066
log2 fold change [2], MCM3 isoform 2 (UniProt P25205) reads inactive: 0.009
